One sequence from ChEMBL document CHEMBL1158258, “Bioactive Isoquinoline Quinone from an Undescribed Philippine Marine Sponge of the Genus Xestospongia” (J Nat Prod, 1996) can be followed below.

The test relates to Staphylococcus aureus. Briefly: Antibacterial activity against Staphylococcus aureus ATCC 25923 at 100 ug after 24 hrs by agar plate diffusion assay. It is filed as functional.

For GENTAMICIN, the inhibition zone (IZ) was 17 mm.
